# Laboratory results reported in PMC8481542.
# Read-outs that look alike come from different tables or passages of the source. Results are given in words; binding and its absence hold for the method and conditions named. In cells and extracts the contact can be indirect. Some entries that bind do so weakly or less than the wild type. For some assays here: Tags and fused reporters may be left off the sequences shown.
# B1: Tim23^ALFA, P32897 1-222 (protein)
# chain: MSWLFGDKTPTDDANAAVGGQDTTKPKELSLKQSLGFEPNINNIISGPGGMHVDTARLHPLAGLDKGVEYLDLEEEQLSSLEGSQGLIPSRGWTDDLCYGTGAVYLLGLGIGGFSGMMQGLQNIPPNSPGKLQLNTVLNHITKRGPFLGNNAGILALSYNIINSTIDALRGKHDTAGSIGAGALTGALFKSSKGLKPMGYSSAMVAAACAVWCSVKKRLLEK
# B2: Tim17^ALFA, P39515 1-158 (protein)
# chain: MSADHSRDPCPIVILNDFGGAFAMGAIGGVVWHGIKGFRNSPLGERGSGAMSAIKARAPVLGGNFGVWGGLFSTFDCAVKAVRKREDPWNAIIAGFFTGGALAVRGGWRHTRNSSITCACLLGVIEGVGLMFQRYAAWQAKPMAPPLPEAPSSQPLQA
# B3: Tim21^FLAG (protein, UniProt P53220 71-239)
# chain: ASTFTFSGILVIGAVGISAIVIYLILSELFSPSGDTQLFNRAVSMVEKNKDIRSLLQCDDGITGKERLKAYGELITNDKWTRNRPIVSTKKLDKEGRTHHYMRFHVESKKKIALVHLEAKESKQNYQPDFINMYVDVPGEKRYYLIKPKLHPVSNSKGFLGIRWGPRKD
# B4: Mgr2 (protein, UniProt Q02889 1-113)
# chain: MPPLPQNYAQQQPSNWDKFKMGLMMGTTVGVCTGILFGGFAIATQGPGPDGVVRTLGKYIAGSAGTFGLFMSIGSIIRSDSESSPMSHPNLNLQQQARLEMWKLRAKYGIRKD
# B5: Tom22 (protein, UniProt P49334 1-152)
# chain: MVELTEIKDDVVQLDEPQFSRNQAIVEEKASATNNDVVDDEDDSDSDFEDEFDENETLLDRIVALKDIVPPGKRQTISNFFGFTSSFVRNAFTKSGNLAWTLTTTALLLGVPLSLSILAEQQLIEMEKTFDLQSDANNILAQGEKDAAATAN
# B6: Pam18 (protein, UniProt Q07914 1-168)
# chain: MSSQSNTGNSIEAPQLPIPGQTNGSANVTVDGAGVNVGIQNGSQGQKTGMDLYFDQALNYMGEHPVITGFGAFLTLYFTAGAYKSISKGLNGGKSTTAFLKGGFDPKMNSKEALQILNLTENTLTKKKLKEVHRKIMLANHPDKGGSPFLATKINEAKDFLEKRGISK
# B7: Tim21 (protein, UniProt P53220 71-239)
# chain: B3 chain
# B8: Pam18^ALFA (protein, UniProt Q07914 1-168)
# chain: B6 chain
# B9: Pam16^ALFA, P42949 1-149 (protein)
# chain: MAHRAFIQVIITGTQVFGKAFAEAYRQAASQSVKQGATNASRRGTGKGEYGGITLDESCKILNIEESKGDLNMDKINNRFNYLFEVNDKEKGGSFYLQSKVYRAAERLKWELAQREKNAKAKAGDASTAKPPPNSTNSSGADNSASSNQ
# Tests used:
# [1] = biological target: T1, Tim21 (S. cerevisiae (endogenous in yeast mitochondria)) (UniProt P53220); experiment: cross-linking; TIM23 complex isolated from ^HisS*Tim23 mitochondria after import of buffer or Jac1^sfGFP; 2 mM DSS or 10 mM EDC 3 h on ice, or 2 mM SDA; LC-MS/MS (approach 1), corroborated by in organello approaches 2 and 3
# T1 sequence: B3 chain
# [2] = biological target: T2, Pam17 (S. cerevisiae (endogenous in yeast mitochondria)) (UniProt P36147); experiment: as above
# T2 sequence: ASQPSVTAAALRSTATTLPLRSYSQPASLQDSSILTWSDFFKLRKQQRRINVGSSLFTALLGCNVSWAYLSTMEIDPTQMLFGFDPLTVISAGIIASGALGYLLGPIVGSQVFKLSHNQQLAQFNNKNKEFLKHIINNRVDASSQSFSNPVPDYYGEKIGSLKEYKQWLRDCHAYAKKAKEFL
# [3] = biological target: T3, Tim23 released from ^HisS*Tim23 by SUMOstar protease (S. cerevisiae) (UniProt P32897); experiment: as above
# T3 sequence: B1 chain
# [4] = biological target: T4, Tim23^ALFA (S. cerevisiae), P32897; experiment: co-IP; mitochondria of yeast expressing a wild-type and a tagged copy; 1% digitonin; ALFA Selector ST or FLAG beads, 1 h 4 °C, SDS elution; western blot; conditions: remark: other sources report otherwise
# T4 chain: B1 chain
# [5] = biological target: T5, Tim17^ALFA (S. cerevisiae), P39515; experiment: as above; conditions: remark: other sources report otherwise
# T5 chain: B2 chain
# [6] = biological target: Tim21^FLAG (S. cerevisiae) (UniProt P53220); experiment: as above
# [7] = biological target: T1, Tim21 (S. cerevisiae (endogenous in yeast mitochondria)); experiment: cross-linking; TIM23 complex isolated from ^HisS*Tim23 mitochondria after import of buffer or Jac1^sfGFP; 2 mM DSS or 10 mM EDC 3 h on ice, or 2 mM SDA; LC-MS/MS (approach 1), corroborated by in organello approaches 2 and 3; remark: listed apart in the source
# [8] = biological target: T3, Tim23 released from ^HisS*Tim23 by SUMOstar protease (S. cerevisiae); experiment: as above; remark: listed apart in the source
# [9] = biological target: T6, Tim50 (S. cerevisiae (endogenous in yeast mitochondria)) (UniProt Q02776); experiment: cross-linking; in organello (approach 2): ^HisS*Tim23 mitochondria with buffer or Jac1^sfGFP, 5 mM EDC/10 mM Sulfo NHS 3 h on ice in HN buffer; LC-MS/MS
# T6 sequence: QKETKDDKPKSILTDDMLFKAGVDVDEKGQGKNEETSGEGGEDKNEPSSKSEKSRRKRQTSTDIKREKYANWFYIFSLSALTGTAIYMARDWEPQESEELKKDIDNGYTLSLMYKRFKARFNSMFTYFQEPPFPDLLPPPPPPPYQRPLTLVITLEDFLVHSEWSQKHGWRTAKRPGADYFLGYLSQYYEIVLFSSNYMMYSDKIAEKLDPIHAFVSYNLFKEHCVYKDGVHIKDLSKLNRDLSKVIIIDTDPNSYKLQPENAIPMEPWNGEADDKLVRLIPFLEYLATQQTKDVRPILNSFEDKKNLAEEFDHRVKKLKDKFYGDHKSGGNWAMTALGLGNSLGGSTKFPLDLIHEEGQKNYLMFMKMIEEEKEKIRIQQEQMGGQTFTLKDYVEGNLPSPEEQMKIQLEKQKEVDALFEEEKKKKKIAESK
# [10] = biological target: T1, Tim21 (S. cerevisiae (endogenous in yeast mitochondria)); experiment: cross-linking; TIM23 complex isolated from ^HisS*Tim23 and ^HisS*Tim23 tim21Δ mitochondria after Jac1^sfGFP import; 2 mM DSS; SDS-PAGE and immunoblotting
# [11] = biological target: T7, Pam16 (S. cerevisiae (endogenous in yeast mitochondria)) (UniProt P42949); experiment: cross-linking; TIM23 complex isolated from ^HisS*Tim23 mitochondria after import of buffer or Jac1^sfGFP; 2 mM DSS or 10 mM EDC 3 h on ice, or 2 mM SDA; LC-MS/MS (approach 1), corroborated by in organello approaches 2 and 3
# T7 sequence: B9 chain
# [12] = biological target: Pam18^ALFA (S. cerevisiae) (UniProt Q07914); experiment: co-IP; mitochondria of yeast expressing a wild-type and a tagged copy; 1% digitonin; ALFA Selector ST or FLAG beads, 1 h 4 °C, SDS elution; western blot
# [13] = biological target: T8, Pam16^ALFA (S. cerevisiae), P42949; experiment: as above; conditions: remark: other sources report otherwise
# T8 chain: B9 chain
molecule,measurement,setting,value
Tim17 (from UniProt P39515 1-158),binding,[1],binds
same,binding,[2],binds
same,binding,[3],binds
B1,binding,[4],binds
B2,binding,[5],binds
B3,binding,[6],binds
B4,binding,[7],binds
same,binding,[8],binds
"MFGLPQQEVSEEEKRAHQEQTEKTLKQAAYVAAFLWVSPMIWHLVKKQWK (peptide, UniProt P80967 1-50) [Tom5]",binding,[8],binds
B5,binding,[7],binds
same,binding,[9],binds
same,binding,[10],binds
B6,binding,[11],binds
same,binding,[8],binds
B7,binding,[8],binds
B8,binding,[12],no binding
B9,binding,[13],no binding
